Our source for the binding values is article PMC6588657 (2018).

Chains of the proteins cited; added tags and fusions are not shown. Lines headed by an entry give the natural chain unless they say otherwise; changes in a name come on top.
UniProt Q9C0E8: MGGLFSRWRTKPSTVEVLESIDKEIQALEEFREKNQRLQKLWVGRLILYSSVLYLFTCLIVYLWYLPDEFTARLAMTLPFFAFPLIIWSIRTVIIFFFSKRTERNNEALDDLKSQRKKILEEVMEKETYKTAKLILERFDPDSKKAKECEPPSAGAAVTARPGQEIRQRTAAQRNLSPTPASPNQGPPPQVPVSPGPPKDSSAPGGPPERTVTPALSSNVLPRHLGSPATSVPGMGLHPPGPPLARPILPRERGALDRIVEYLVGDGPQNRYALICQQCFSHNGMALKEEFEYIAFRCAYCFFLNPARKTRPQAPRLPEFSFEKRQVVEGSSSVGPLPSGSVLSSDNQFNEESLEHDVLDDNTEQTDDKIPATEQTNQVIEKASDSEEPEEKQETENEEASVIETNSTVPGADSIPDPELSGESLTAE

Test [1] has as its target T1, Flag-ATL1 (human) (UniProt Q8WXF7).
T1 sequence: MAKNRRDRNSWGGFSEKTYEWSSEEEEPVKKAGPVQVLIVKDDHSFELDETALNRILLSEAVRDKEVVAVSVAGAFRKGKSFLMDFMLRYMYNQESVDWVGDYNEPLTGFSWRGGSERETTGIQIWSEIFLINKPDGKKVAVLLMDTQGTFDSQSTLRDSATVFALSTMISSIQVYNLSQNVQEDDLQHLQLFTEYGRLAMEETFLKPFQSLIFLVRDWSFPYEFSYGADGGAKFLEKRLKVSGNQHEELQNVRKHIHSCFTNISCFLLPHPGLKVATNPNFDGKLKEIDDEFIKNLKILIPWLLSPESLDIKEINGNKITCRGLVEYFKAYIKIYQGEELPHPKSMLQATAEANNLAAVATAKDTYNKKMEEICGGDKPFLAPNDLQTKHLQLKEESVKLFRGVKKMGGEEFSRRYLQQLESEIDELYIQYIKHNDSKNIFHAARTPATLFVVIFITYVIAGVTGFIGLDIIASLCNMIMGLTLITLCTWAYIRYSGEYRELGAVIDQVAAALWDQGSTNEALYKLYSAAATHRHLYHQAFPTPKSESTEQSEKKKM
The test is described as follows: co-IP; Flag-ATLs and Lnp-Myc co-transfected into COS-7 cells; Flag-ATLs precipitated by anti-Flag agarose from lysates with 1% Triton X-100; blot with anti-Myc and anti-Flag.

Test [2] concerns the target T2, Flag-ATL3 (human) (UniProt Q6DD88).
T2 sequence: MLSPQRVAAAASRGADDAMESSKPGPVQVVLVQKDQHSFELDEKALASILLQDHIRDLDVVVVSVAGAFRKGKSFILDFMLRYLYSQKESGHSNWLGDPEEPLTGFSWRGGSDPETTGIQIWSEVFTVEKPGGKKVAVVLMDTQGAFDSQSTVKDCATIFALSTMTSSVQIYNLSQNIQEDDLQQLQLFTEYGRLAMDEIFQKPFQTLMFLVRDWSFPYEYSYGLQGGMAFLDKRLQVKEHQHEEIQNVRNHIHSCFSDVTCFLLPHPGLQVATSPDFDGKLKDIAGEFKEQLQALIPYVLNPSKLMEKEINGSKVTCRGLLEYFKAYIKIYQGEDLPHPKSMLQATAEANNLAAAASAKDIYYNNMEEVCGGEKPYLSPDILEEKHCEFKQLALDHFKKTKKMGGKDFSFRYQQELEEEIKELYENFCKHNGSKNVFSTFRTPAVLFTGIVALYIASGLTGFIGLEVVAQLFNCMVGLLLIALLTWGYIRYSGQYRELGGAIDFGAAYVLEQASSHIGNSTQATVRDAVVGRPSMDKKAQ
The description is as above.

The target in test [3] is T3, Flag-ATL1 R77A (human) (UniProt Q8WXF7).
T3 sequence: T1 sequence with R77A
Described as above.

Test [4] concerns the target full-length, C-terminal, Flag-tagged human Lnp (human) (UniProt Q9C0E8). The test is described as follows: co-IP; Lnp-Myc co-expressed with Lnp-Flag or Flag-tagged truncations in COS-7 cells; Flag-tagged protein precipitated by anti-Flag agarose from lysates with 1% Triton X-100; blot with anti-Flag and anti-Myc.
Test [5] shares this target. The test is described as follows: co-IP; Myc-ATL3 co-expressed with Flag-tagged wild-type or mutant Lnp in COS-7 cells; Lnp-Flag proteins precipitated by anti-Flag agarose from lysates with 1% Triton X-100; blot with anti-Flag and anti-Myc.
The target in test [6] is Lnp G2A (human) (UniProt Q9C0E8). Description: co-IP; Fig. S3B; legend not shown; Lnp G2A against ATL1, ATL2 and ATL3.
The target of test [7] is full-length, C-terminal, Flag-tagged human Lnp (human) (UniProt Q9C0E8). The test is described as above.

Numbering of substitutions follows the chain as printed. In names and notes the source's numbering stands. Results are given in words; binding and its absence hold for the method and conditions named. In cells and extracts the contact can be indirect. Some entries that bind do so weakly or less than the wild type. For some assays here: Tags and fused reporters may be left off the sequences shown.

Consider “C-terminal Myc-tagged wild-type human Lnp (from UniProt Q9C0E8 1-428)”, for which the binding entry in test [1] was “binds weakly”; in test [2], “binds”; in test [3], “binds”; in test [4], “binds”.

B1: Myc-ATL3 (protein, UniProt Q6DD88 1-541)
chain: T2 sequence
With B1, the binding entry in test [5], in test [6] and in test [7] was “binds” throughout.

B2: ATL1 (Fig. S3B) (protein, UniProt Q8WXF7 1-558)
chain: T1 sequence
For B2, the binding result in test [6] is recorded as “binds”.
